Results deposited as PubChem BioAssay AID686938 (Drosophila RNAi Screening Center, 2013)
The screen tested about 23,000 reagents; this is an unselected part of those that have a named target and a result. Of all reagents, 75 (0.33%) got an active call. 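Raw plate signals without normalisation; calls rest on plate z-scores that were not deposited; ratio present for only 364 wells.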 Not given: the dose of the treatment.

Test: 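Knock-downs reducing store-operated calcium influx in Drosophila cells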 (primary screen)
System: Drosophila S2R+ cells
Knock-down reagent: long dsRNA against Drosophila genes, about 0.25 µg dsRNA per well, roughly 10,000 cells
Duration: 5 days of knock-down before the calcium assay
Conditions: thapsigargin (SERCA pump blocker) to empty calcium stores; entry signal taken 4 min after adding it
Read-out: 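Duplicate raw fluo-4 intensities per well from a plate reader, at rest and four minutes after thapsigargin emptied calcium stores; entry-to-rest ratio filled for only some wells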
Direction: calcium entry signal: higher = stronger calcium signal after store depletion; resting calcium signal: higher = higher resting calcium signal
Hit rule: 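Hit if the duplicate-averaged plate z-score for entry over resting signal is under −3; wells with weak total dye signal (Fmax z < −2) or more than 5 off-targets removed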
Meaning of the calls: active = strongly reduced calcium entry; inactive = no strong reduction

Sr-CIV (Scavenger receptor class C, type IV) [DRSC00575] — calcium entry signal, replicate 1 (fluorescence units): 3.57e7; calcium entry signal, replicate 2 (fluorescence units): 3.42e7; resting calcium signal, replicate 1 (fluorescence units): 1.70e7; resting calcium signal, replicate 2 (fluorescence units): 1.63e7; call: inactive
CG15445 [DRSC20517] — calcium entry signal, replicate 1 (fluorescence units): 2.75e7; calcium entry signal, replicate 2 (fluorescence units): 3.10e7; resting calcium signal, replicate 1 (fluorescence units): 1.40e7; resting calcium signal, replicate 2 (fluorescence units): 1.48e7; call: inactive
SdhD (Succinate dehydrogenase, subunit D) [DRSC14215] — calcium entry signal, replicate 1 (fluorescence units): 4.51e7; calcium entry signal, replicate 2 (fluorescence units): 2.83e7; resting calcium signal, replicate 1 (fluorescence units): 2.16e7; resting calcium signal, replicate 2 (fluorescence units): 1.35e7; call: inactive
Grip163 [DRSC10538] — calcium entry signal, replicate 1 (fluorescence units): 3.13e7; calcium entry signal, replicate 2 (fluorescence units): 4.22e7; resting calcium signal, replicate 1 (fluorescence units): 1.59e7; resting calcium signal, replicate 2 (fluorescence units): 1.95e7; call: inactive
SMC6 (Structural maintenance of chromosomes 6) [DRSC15829] — calcium entry signal, replicate 1 (fluorescence units): 4.49e7; calcium entry signal, replicate 2 (fluorescence units): 4.50e7; resting calcium signal, replicate 1 (fluorescence units): 2.32e7; resting calcium signal, replicate 2 (fluorescence units): 1.97e7; call: inactive
CG13733 [DRSC10061] — calcium entry signal, replicate 1 (fluorescence units): 3.67e7; calcium entry signal, replicate 2 (fluorescence units): 5.31e7; resting calcium signal, replicate 1 (fluorescence units): 1.75e7; resting calcium signal, replicate 2 (fluorescence units): 2.12e7; call: inactive
Nup43 (Nucleoporin 43kD) [DRSC16279] — calcium entry signal, replicate 1 (fluorescence units): 3.69e7; calcium entry signal, replicate 2 (fluorescence units): 3.61e7; resting calcium signal, replicate 1 (fluorescence units): 3.96e7; resting calcium signal, replicate 2 (fluorescence units): 1.77e7; call: inactive
Or85d (Odorant receptor 85d) [DRSC16767] — calcium entry signal, replicate 1 (fluorescence units): 4.33e7; calcium entry signal, replicate 2 (fluorescence units): 3.27e7; resting calcium signal, replicate 1 (fluorescence units): 2.30e7; resting calcium signal, replicate 2 (fluorescence units): 1.59e7; call: inactive
CG17239 [DRSC00492] — calcium entry signal, replicate 1 (fluorescence units): 2.98e7; calcium entry signal, replicate 2 (fluorescence units): 2.72e7; resting calcium signal, replicate 1 (fluorescence units): 1.35e7; resting calcium signal, replicate 2 (fluorescence units): 1.28e7; call: inactive
not (non-stop) [DRSC11378] — calcium entry signal, replicate 1 (fluorescence units): 4.07e7; calcium entry signal, replicate 2 (fluorescence units): 5.58e7; resting calcium signal, replicate 1 (fluorescence units): 2.16e7; resting calcium signal, replicate 2 (fluorescence units): 4.00e7; call: inactive
CG14744 [DRSC06480] — calcium entry signal, replicate 1 (fluorescence units): 3.54e7; calcium entry signal, replicate 2 (fluorescence units): 3.72e7; resting calcium signal, replicate 1 (fluorescence units): 1.67e7; resting calcium signal, replicate 2 (fluorescence units): 1.72e7; call: inactive
CG17294 [DRSC02596] — calcium entry signal, replicate 1 (fluorescence units): 4.74e7; resting calcium signal, replicate 1 (fluorescence units): 2.17e7; call: inactive
Uxt (Uxt prefoldin-like subunit) [DRSC01962] — calcium entry signal, replicate 1 (fluorescence units): 3.90e7; calcium entry signal, replicate 2 (fluorescence units): 2.40e7; resting calcium signal, replicate 1 (fluorescence units): 1.80e7; resting calcium signal, replicate 2 (fluorescence units): 1.16e7; call: inactive
lectin-29Ca [DRSC02635] — calcium entry signal, replicate 1 (fluorescence units): 4.02e7; calcium entry signal, replicate 2 (fluorescence units): 5.79e7; resting calcium signal, replicate 1 (fluorescence units): 1.99e7; resting calcium signal, replicate 2 (fluorescence units): 2.52e7; call: inactive
gbb (glass bottom boat) [DRSC04687] — calcium entry signal, replicate 1 (fluorescence units): 4.52e7; calcium entry signal, replicate 2 (fluorescence units): 4.91e7; resting calcium signal, replicate 1 (fluorescence units): 2.24e7; resting calcium signal, replicate 2 (fluorescence units): 2.22e7; call: inactive
Nprl3 (Nitrogen permease regulator-like 3) [DRSC11044] — calcium entry signal, replicate 1 (fluorescence units): 2.74e7; calcium entry signal, replicate 2 (fluorescence units): 3.63e7; resting calcium signal, replicate 1 (fluorescence units): 1.32e7; resting calcium signal, replicate 2 (fluorescence units): 2.53e7; call: inactive
CG4613 [DRSC10435] — calcium entry signal, replicate 1 (fluorescence units): 7.91e7; calcium entry signal, replicate 2 (fluorescence units): 9.15e7; resting calcium signal, replicate 1 (fluorescence units): 2.95e7; resting calcium signal, replicate 2 (fluorescence units): 3.19e7; call: inactive
CG14712 [DRSC14935] — calcium entry signal, replicate 1 (fluorescence units): 2.93e7; calcium entry signal, replicate 2 (fluorescence units): 3.53e7; resting calcium signal, replicate 1 (fluorescence units): 1.46e7; resting calcium signal, replicate 2 (fluorescence units): 1.77e7; call: inactive
RNaseP:RNA (Ribonuclease P RNA) [DRSC22967] — calcium entry signal, replicate 1 (fluorescence units): 3.28e7; calcium entry signal, replicate 2 (fluorescence units): 2.96e7; resting calcium signal, replicate 1 (fluorescence units): 1.56e7; resting calcium signal, replicate 2 (fluorescence units): 1.25e7; call: inactive
CG14882 [DRSC15006] — calcium entry signal, replicate 1 (fluorescence units): 3.26e7; calcium entry signal, replicate 2 (fluorescence units): 2.62e7; resting calcium signal, replicate 1 (fluorescence units): 1.57e7; resting calcium signal, replicate 2 (fluorescence units): 1.28e7; call: inactive
CG11977 [DRSC14454] — calcium entry signal, replicate 1 (fluorescence units): 5.81e7; calcium entry signal, replicate 2 (fluorescence units): 3.48e7; resting calcium signal, replicate 1 (fluorescence units): 2.67e7; resting calcium signal, replicate 2 (fluorescence units): 1.74e7; call: inactive
Fer2 (48 related 2) [DRSC15925] — calcium entry signal, replicate 1 (fluorescence units): 4.65e7; calcium entry signal, replicate 2 (fluorescence units): 8.17e7; resting calcium signal, replicate 1 (fluorescence units): 2.11e7; resting calcium signal, replicate 2 (fluorescence units): 8.25e7; call: inactive
Tti1 (Telo2 interacting protein 1) [DRSC15163] — calcium entry signal, replicate 1 (fluorescence units): 3.55e7; calcium entry signal, replicate 2 (fluorescence units): 3.31e7; resting calcium signal, replicate 1 (fluorescence units): 2.14e7; resting calcium signal, replicate 2 (fluorescence units): 1.72e7; call: inactive
CG15093 [DRSC06522] — calcium entry signal, replicate 1 (fluorescence units): 3.96e7; calcium entry signal, replicate 2 (fluorescence units): 3.93e7; resting calcium signal, replicate 1 (fluorescence units): 1.76e7; resting calcium signal, replicate 2 (fluorescence units): 1.93e7; call: inactive
lncRNA:CR30121 (long non-coding RNA:CR30121) [DRSC21481] — calcium entry signal, replicate 1 (fluorescence units): 2.58e7; calcium entry signal, replicate 2 (fluorescence units): 2.96e7; resting calcium signal, replicate 1 (fluorescence units): 1.45e7; resting calcium signal, replicate 2 (fluorescence units): 1.52e7; call: inactive
Acp53C14c (Accessory gland protein 53C14c) [DRSC05626] — calcium entry signal, replicate 1 (fluorescence units): 2.59e7; calcium entry signal, replicate 2 (fluorescence units): 5.21e7; resting calcium signal, replicate 1 (fluorescence units): 1.33e7; resting calcium signal, replicate 2 (fluorescence units): 2.40e7; call: inactive
UK114 [DRSC01973] — calcium entry signal, replicate 1 (fluorescence units): 3.58e7; calcium entry signal, replicate 2 (fluorescence units): 2.92e7; resting calcium signal, replicate 1 (fluorescence units): 1.69e7; resting calcium signal, replicate 2 (fluorescence units): 1.28e7; call: inactive
